According to article PMC5344305:
No constants are given. Whether binding was seen depends on the method and setting. In cells and extracts the contact can be indirect. Some results given as binding are weak or reduced against the parent protein; the word gives no strength.

Amino acid sequences for entries named in this document (tags omitted). A change or cut given only in a name is not applied to a line headed by its entry.
UniProt Q93050: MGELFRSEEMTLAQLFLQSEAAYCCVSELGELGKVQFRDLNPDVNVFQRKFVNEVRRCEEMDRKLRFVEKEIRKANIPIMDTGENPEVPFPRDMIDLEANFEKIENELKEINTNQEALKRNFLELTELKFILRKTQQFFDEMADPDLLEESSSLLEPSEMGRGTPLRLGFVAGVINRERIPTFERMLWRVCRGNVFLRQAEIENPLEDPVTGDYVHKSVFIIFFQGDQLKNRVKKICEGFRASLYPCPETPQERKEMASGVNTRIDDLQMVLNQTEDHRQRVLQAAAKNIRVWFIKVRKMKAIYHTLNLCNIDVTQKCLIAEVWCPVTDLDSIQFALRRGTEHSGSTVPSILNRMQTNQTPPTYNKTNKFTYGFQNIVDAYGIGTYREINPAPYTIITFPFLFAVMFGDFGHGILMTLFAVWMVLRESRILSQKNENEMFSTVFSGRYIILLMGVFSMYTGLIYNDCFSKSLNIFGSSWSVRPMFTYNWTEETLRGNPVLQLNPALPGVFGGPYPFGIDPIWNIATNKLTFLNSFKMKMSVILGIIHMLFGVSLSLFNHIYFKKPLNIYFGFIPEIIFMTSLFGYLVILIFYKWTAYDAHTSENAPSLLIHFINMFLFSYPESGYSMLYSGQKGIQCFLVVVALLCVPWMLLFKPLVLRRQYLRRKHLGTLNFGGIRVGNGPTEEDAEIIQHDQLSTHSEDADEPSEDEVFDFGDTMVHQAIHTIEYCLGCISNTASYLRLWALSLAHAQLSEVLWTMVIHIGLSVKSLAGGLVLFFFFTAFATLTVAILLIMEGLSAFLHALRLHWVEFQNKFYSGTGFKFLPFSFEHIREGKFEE
UniProt Q9Z1G4: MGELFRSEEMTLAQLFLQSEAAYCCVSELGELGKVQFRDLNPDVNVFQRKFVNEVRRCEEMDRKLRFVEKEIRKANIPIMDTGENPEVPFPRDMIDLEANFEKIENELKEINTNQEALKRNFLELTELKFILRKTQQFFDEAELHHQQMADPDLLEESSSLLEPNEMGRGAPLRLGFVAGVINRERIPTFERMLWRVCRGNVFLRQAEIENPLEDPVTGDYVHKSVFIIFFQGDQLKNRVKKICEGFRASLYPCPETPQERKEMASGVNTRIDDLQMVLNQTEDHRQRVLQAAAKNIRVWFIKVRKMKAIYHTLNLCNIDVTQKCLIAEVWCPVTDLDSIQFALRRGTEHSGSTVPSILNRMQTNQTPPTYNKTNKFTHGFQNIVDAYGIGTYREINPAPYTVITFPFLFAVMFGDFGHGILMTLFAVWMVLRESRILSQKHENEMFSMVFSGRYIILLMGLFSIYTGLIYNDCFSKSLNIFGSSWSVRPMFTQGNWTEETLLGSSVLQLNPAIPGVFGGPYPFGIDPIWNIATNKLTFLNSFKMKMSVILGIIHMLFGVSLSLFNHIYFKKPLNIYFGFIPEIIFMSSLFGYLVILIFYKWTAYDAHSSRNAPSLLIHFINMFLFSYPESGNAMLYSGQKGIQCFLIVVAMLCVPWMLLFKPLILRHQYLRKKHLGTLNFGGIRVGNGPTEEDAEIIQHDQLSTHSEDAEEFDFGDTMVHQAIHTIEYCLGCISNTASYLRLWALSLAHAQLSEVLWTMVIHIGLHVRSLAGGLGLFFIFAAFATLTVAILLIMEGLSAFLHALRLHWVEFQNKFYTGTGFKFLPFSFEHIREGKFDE

Experiments:
[1] = target: T1, palmitoyl-protein thioesterase-1 (PPT1) (human (endogenous in HEK-293)) (UniProt P50897); experiment: co-IP; HEK-293 cells transfected with tagged V0a1 constructs, lysed in RIPA buffer, diluted in PBS with 0.5% NP-40; AP-2, AP-3 or PPT1 antibody overnight at 4 °C, TrueBlot IP beads, western blot; called pull-down by the paper
T1 sequence: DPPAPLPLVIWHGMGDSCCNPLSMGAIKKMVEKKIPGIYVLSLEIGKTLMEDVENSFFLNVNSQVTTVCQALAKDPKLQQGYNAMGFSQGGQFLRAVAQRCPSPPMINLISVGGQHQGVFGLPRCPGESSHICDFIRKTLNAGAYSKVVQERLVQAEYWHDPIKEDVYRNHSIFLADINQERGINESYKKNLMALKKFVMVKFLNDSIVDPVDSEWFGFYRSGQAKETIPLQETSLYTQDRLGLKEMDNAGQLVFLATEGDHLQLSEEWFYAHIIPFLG

[2] = target: T2, palmitoyl-protein thioesterase-1 (Ppt1) (mouse (endogenous in neurons)) (UniProt O88531); experiment: proximity ligation; Duolink PLA on fixed, permeabilised cultured primary neurons of WT and Cln1-/- mice with V0a1 antibody and AP-2, AP-3 or Ppt1 antibody; signal when antibodies are <40 nm apart
T2 sequence: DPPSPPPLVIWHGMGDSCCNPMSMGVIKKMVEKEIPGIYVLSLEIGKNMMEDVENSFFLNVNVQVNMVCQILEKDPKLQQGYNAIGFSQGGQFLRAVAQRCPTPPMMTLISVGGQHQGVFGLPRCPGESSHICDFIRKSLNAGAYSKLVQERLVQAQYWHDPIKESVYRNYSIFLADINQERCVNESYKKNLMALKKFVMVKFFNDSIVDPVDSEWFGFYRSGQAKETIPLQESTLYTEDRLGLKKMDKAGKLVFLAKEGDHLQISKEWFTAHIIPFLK

binding [1]	binding [2]	Substance
no binding		FLAG-tagged V0a1 C25S mutant (from UniProt Q93050 1-837)
binds		FLAG-tagged WT-V0a1 (from UniProt Q93050 1-837)
	binds	v-ATPase subunit a1 of the V0 sector (V0a1) (from UniProt Q9Z1G4 1-839)
binds		FLAG-tagged V0a1 C58A mutant (from UniProt Q93050 1-837)
